These are yes or no findings as the source states them, for the method shown. For part of these data: Binding seen in cells or lysates may run through a third protein. Some results given as binding are weak or reduced against the parent protein; the word gives no strength.

Chains of the proteins cited; added tags and fusions are not shown.
UniProt P0A6F5: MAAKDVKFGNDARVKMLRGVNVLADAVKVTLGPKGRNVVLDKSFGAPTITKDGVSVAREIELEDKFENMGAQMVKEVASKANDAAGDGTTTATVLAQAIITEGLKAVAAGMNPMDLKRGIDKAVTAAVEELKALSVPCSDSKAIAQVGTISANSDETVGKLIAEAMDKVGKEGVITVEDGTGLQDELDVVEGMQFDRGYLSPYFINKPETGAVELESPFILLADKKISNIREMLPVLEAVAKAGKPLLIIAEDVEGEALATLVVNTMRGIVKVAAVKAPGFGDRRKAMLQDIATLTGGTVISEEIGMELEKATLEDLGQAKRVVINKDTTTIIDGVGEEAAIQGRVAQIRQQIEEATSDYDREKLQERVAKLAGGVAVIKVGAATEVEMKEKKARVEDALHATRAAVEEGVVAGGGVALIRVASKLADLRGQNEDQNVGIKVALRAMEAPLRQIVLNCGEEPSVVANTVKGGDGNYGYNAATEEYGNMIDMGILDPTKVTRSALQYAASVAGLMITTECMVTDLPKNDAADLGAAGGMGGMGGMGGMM
UniProt P0A8T7: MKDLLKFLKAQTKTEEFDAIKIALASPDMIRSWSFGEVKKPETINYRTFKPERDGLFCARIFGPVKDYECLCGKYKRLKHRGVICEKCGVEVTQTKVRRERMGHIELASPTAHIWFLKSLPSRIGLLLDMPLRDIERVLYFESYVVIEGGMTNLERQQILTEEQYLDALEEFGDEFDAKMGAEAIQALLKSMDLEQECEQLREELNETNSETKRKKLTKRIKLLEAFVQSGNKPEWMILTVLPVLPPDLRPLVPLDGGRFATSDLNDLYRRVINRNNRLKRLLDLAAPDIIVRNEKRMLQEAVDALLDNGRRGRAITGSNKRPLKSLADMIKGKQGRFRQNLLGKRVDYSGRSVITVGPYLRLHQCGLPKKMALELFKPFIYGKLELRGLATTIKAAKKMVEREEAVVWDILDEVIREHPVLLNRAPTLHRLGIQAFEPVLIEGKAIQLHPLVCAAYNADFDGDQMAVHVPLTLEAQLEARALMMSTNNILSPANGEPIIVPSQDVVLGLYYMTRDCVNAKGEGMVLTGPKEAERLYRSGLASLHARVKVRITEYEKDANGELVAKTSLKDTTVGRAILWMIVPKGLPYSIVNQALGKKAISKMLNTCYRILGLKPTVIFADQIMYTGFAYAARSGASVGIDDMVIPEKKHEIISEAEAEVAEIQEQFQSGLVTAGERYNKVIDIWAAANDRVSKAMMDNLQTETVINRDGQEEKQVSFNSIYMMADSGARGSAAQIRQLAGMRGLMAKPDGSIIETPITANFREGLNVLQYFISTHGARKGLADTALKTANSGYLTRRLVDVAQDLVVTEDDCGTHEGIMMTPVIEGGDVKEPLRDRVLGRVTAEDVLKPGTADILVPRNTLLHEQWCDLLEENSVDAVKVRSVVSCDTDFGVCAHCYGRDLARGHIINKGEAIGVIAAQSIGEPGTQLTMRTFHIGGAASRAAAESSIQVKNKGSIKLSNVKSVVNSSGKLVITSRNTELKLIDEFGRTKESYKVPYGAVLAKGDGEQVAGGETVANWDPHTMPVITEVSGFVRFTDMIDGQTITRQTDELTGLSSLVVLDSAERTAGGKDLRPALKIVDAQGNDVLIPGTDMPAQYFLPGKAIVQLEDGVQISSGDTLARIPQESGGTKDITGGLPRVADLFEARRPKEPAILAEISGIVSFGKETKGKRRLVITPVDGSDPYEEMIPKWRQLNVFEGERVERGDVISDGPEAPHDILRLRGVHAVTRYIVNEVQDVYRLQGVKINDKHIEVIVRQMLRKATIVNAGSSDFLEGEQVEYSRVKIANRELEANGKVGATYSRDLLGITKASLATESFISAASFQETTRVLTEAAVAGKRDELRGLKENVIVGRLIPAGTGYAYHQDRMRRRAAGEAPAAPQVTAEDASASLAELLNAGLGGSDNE
UniProt P0A8V2: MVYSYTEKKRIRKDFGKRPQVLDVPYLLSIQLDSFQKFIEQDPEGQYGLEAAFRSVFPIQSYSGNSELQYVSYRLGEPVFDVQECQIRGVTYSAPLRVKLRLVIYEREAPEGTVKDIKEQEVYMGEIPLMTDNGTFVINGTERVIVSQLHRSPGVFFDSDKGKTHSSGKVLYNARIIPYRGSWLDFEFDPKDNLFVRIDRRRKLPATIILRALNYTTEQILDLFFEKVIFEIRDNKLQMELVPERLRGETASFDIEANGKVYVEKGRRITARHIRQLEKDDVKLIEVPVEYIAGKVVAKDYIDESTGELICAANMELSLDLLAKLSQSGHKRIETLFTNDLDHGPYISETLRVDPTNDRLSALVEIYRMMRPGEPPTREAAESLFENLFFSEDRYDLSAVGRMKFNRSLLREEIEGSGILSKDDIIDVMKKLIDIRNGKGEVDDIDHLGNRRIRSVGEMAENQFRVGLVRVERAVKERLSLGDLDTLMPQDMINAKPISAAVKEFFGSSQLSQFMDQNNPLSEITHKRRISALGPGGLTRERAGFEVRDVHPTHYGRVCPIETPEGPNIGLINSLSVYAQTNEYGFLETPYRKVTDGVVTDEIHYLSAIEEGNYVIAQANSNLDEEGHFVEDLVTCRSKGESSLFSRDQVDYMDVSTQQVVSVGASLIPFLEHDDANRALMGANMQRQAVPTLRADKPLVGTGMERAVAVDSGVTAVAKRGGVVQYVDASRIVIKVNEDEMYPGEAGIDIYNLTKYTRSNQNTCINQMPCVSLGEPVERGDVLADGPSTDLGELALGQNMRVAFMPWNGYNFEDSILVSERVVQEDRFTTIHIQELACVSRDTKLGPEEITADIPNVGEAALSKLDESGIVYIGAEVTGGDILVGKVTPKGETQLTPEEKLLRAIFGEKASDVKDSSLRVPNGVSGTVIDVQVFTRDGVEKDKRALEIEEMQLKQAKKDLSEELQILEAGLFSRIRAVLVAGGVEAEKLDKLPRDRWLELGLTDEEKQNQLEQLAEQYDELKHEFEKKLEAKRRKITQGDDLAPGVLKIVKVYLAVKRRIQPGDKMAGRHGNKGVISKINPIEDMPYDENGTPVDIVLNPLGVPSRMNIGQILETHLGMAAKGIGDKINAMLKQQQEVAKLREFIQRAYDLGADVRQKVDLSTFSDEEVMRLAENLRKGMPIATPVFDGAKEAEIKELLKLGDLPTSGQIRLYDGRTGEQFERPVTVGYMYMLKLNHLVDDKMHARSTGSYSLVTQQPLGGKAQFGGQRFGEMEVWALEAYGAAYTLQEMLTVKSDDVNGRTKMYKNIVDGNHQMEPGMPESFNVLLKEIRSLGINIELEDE

Assay [1] has as its target GroEL (E. coli K12 (endogenous in the lysate)) (UniProt P0A6F5). In words: cross-linking; BS3 or DSSO (0.75 mM, 2 h on ice) in the single SEC fractions of E. coli K12 lysate, fractions pooled, LC-MS; PPIs at 1% heteromeric PPI-FDR.
Assay [2] has the same target. In words: SEC; E. coli K12 lysate on a BioSep SEC-S4000 column at 4 °C, 44 fractions; elution profile of each protein by label-free quantitative MS (iBAQ); coelution.
The target of assay [3] is rpoC (E. coli K12 (endogenous in the lysate)) (UniProt P0A8T7). The assay is described as follows: cross-linking; sulfo-SDA (50-1000 µM, 2 h on ice, UV 365 nm) on the TEV eluates of the YacL-SPA, RpoB-SPA and NusG-SPA enrichments; LC-MS; 2% residue pair FDR, 5% PPI FDR.
Assay [4] deals with rpoB (E. coli K12 (endogenous in the lysate)) (UniProt P0A8V2). The assay is described as above.
The next assay deals with RpoB-SPA (E. coli K12) (UniProt P0A8V2). The assay is described as above.
Assay [5] deals with T1, YqjD (E. coli K12 (endogenous in BW25113)) (UniProt P64581).
T1 sequence: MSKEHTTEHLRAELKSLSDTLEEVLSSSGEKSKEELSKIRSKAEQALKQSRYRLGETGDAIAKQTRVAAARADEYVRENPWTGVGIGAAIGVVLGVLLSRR
The assay is described as follows: cross-linking; BS3 or DSSO (0.75 mM, 2 h on ice) in each of 44 SEC fractions of E. coli K12 BW25113 lysate, fractions pooled, digested, SCX and hSAX fractionation, LC-MS; PPIs at 1% heteromeric decoy-based PPI-FDR.

B1: cysD (protein, UniProt P21156 1-302)
chain: MDQIRLTHLRQLEAESIHIIREVAAEFSNPVMLYSIGKDSSVMLHLARKAFYPGTLPFPLLHVDTGWKFREMYEFRDRTAKAYGCELLVHKNPEGVAMGINPFVHGSAKHTDIMKTEGLKQALNKYGFDAAFGGARRDEEKSRAKERIYSFRDRFHRWDPKNQRPELWHNYNGQINKGESIRVFPLSNWTEQDIWQYIWLENIDIVPLYLAAERPVLERDGMLMMIDDNRIDLQPGEVIKKRMVRFRTLGCWPLTGAVESNAQTLPEIIEEMLVSTTSERQGRVIDRDQAGSMELKKRQGYF
Take B1: the binding result in assay [1] is “binds”.

B2: yciO (protein, UniProt P0AFR4 1-206)
chain: MSQFFYIHPDNPQQRLINQAVEIVRKGGVIVYPTDSGYALGCKIEDKNAMERICRIRQLPDGHNFTLMCRDLSELSTYSFVDNVAFRLMKNNTPGNYTFILKGTKEVPRRLLQEKRKTIGMRVPSNPIAQALLEALGEPMLSTSLMLPGSEFTESDPEEIKDRLEKQVDLIIHGGYLGQKPTTVIDLTDDTPVVVREGVGDVKPFL
Consider B2, for which the binding entry in assay [1] is “binds”.

B3: ogt (protein, UniProt P0AFH0 1-171)
chain: MLRLLEEKIATPLGPLWVICDEQFRLRAVEWEEYSERMVQLLDIHYRKEGYERISATNPGGLSDKLREYFAGNLSIIDTLPTATGGTPFQREVWKTLRTIPCGQVMHYGQLAEQLGRPGAARAVGAANGSNPISIVVPCHRVIGRNGTMTGYAGGVQRKEWLLRHEGYLLL
As to B3, in assay [1], the binding result was “binds”.

B4: dadX (protein, UniProt P29012 1-356)
chain: MTRPIQASLDLQALKQNLSIVRQAATHARVWSVVKANAYGHGIERIWSAIGATDGFALLNLEEAITLRERGWKGPILMLEGFFHAQDLEIYDQHRLTTCVHSNWQLKALQNARLKAPLDIYLKVNSGMNRLGFQPDRVLTVWQQLRAMANVGEMTLMSHFAEAEHPDGISGAMARIEQAAEGLECRRSLSNSAATLWHPEAHFDWVRPGIILYGASPSGQWRDIANTGLRPVMTLSSEIIGVQTLKAGERVGYGGRYTARDEQRIGIVAAGYADGYPRHAPTGTPVLVDGVRTMTVGTVSMDMLAVDLTPCPQAGIGTPVELWGKEIKIDDVAAAAGTVGYELMCALALRVPVVTV
As to B4, the binding entry in assay [1] is on record as “binds”.

B5: yjjU (protein, UniProt P39407 1-357)
chain: MGQRIPVTLGNIAPLSLRPFQPGRIALVCEGGGQRGIFTAGVLDEFMRAQFNPFDLYLGTSAGAQNLSAFICNQPGYARKVIMRYTTKREFFDPLRFVRGGNLIDLDWLVEATASQMPLQMDTAARLFDSGKSFYMCACRQDDYAPNYFLPTKQNWLDVIRASSAIPGFYRSGVSLEGINYLDGGISDAIPVKEAARQGAKTLVVIRTVPSQMYYTPQWFKRMERWLGDSSLQPLVNLVQHHETSYRDIQQFIEKPPGKLRIFEIYPPKPLHSIALGSRIPALREDYKLGRLCGRYFLATVGKLLTEKAPLTRHLVPVVTPESIVIPPAPVANDTLVAEVSDAPQANDPTFNNEDLA
As to B5, the binding entry in assay [2] and in assay [1] was “binds” in each case.

B6: rpoE (protein, UniProt P0AGB6 1-191)
chain: MSEQLTDQVLVERVQKGDQKAFNLLVVRYQHKVASLVSRYVPSGDVPDVVQEAFIKAYRALDSFRGDSAFYTWLYRIAVNTAKNYLVAQGRRPPSSDVDAIEAENFESGGALKEISNPENLMLSEELRQIVFRTIESLPEDLRMAITLRELDGLSYEEIAAIMDCPVGTVRSRIFRAREAIDNKVQPLIRR
With B6, the binding result in assay [3] is “binds”.

B7: metK (protein, UniProt P0A817 1-384)
chain: MAKHLFTSESVSEGHPDKIADQISDAVLDAILEQDPKARVACETYVKTGMVLVGGEITTSAWVDIEEITRNTVREIGYVHSDMGFDANSCAVLSAIGKQSPDINQGVDRADPLEQGAGDQGLMFGYATNETDVLMPAPITYAHRLVQRQAEVRKNGTLPWLRPDAKSQVTFQYDDGKIVGIDAVVLSTQHSEEIDQKSLQEAVMEEIIKPILPAEWLTSATKFFINPTGRFVIGGPMGDCGLTGRKIIVDTYGGMARHGGGAFSGKDPSKVDRSAAYAARYVAKNIVAAGLADRCEIQVSYAIGVAEPTSIMVETFGTEKVPSEQLTLLVREFFDLRPYGLIQMLDLLHPIYKETAAYGHFGREHFPWEKTDKAQLLRDAAGLK
With B7, the binding result in assay [2] and in assay [1] was “binds” throughout.

B8: ftsE (protein, UniProt P0A9R7 1-222)
chain: MIRFEHVSKAYLGGRQALQGVTFHMQPGEMAFLTGHSGAGKSTLLKLICGIERPSAGKIWFSGHDITRLKNREVPFLRRQIGMIFQDHHLLMDRTVYDNVAIPLIIAGASGDDIRRRVSAALDKVGLLDKAKNFPIQLSGGEQQRVGIARAVVNKPAVLLADEPTGNLDDALSEGILRLFEEFNRVGVTVLMATHDINLISRRSYRMLTLSDGHLHGGVGHE
Regarding B8, the binding entry in assay [1] is recorded as “binds”.

B9: YacL-SPA (protein, UniProt P0A8E5 1-120)
chain: MDYEFLRDITGVVKVRMSMGHEVVGHWFNEEVKENLALLDEVEQAAHALKGSERSWQRAGHEYTLWMDGEEVMVRANQLEFAGDEMEEGMNYYDEESLSLCGVEDFLQVVAAYRNFVLQK
In the case of B9, the binding result in assay [3] and in assay [4] was “binds” in each case.

B10: yifE (protein, UniProt P0ADN2 1-112)
chain: MAESFTTTNRYFDNKHYPRGFSRHGDFTIKEAQLLERHGYAFNELDLGKREPVTEEEKLFVAVCRGEREPVTEAERVWSKYMTRIKRPKRFHTLSGGKPQVEGAEDYTDSDD
On to B10, for which, in the assay with RpoB-SPA (E. coli K12), the binding entry is listed as “binds”.

B11: gsiA (protein, UniProt P75796 1-623)
chain: MPHSDELDAGNVLAVENLNIAFMQDQQKIAAVRNLSFSLQRGETLAIVGESGSGKSVTALALMRLLEQAGGLVQCDKMLLQRRSREVIELSEQNAAQMRHVRGADMAMIFQEPMTSLNPVFTVGEQIAESIRLHQNASREEAMVEAKRMLDQVRIPEAQTILSRYPHQLSGGMRQRVMIAMALSCRPAVLIADEPTTALDVTIQAQILQLIKVLQKEMSMGVIFITHDMGVVAEIADRVLVMYQGEAVETGTVEQIFHAPQHPYTRALLAAVPQLGAMKGLDYPRRFPLISLEHPAKQAPPIEQKTVVDGEPVLRVRNLVTRFPLRSGLLNRVTREVHAVEKVSFDLWPGETLSLVGESGSGKSTTGRALLRLVESQGGEIIFNGQRIDTLSPGKLQALRRDIQFIFQDPYASLDPRQTIGDSIIEPLRVHGLLPGKDAAARVAWLLERVGLLPEHAWRYPHEFSGGQRQRICIARALALNPKVIIADEAVSALDVSIRGQIINLLLDLQRDFGIAYLFISHDMAVVERISHRVAVMYLGQIVEIGPRRAVFENPQHPYTRKLLAAVPVAEPSRQRPQRVLLSDDLPSNIHLRGEEVAAVSLQCVGPGHYVAQPQSEYAFMRR
With B11, the binding entry in assay [1] was “binds”.

B12: ompA (protein, UniProt P0A910 22-346)
chain: APKDNTWYTGAKLGWSQYHDTGFINNNGPTHENQLGAGAFGGYQVNPYVGFEMGYDWLGRMPYKGSVENGAYKAQGVQLTAKLGYPITDDLDIYTRLGGMVWRADTKSNVYGKNHDTGVSPVFAGGVEYAITPEIATRLEYQWTNNIGDAHTIGTRPDNGMLSLGVSYRFGQGEAAPVVAPAPAPAPEVQTKHFTLKSDVLFNFNKATLKPEGQAALDQLYSQLSNLDPKDGSVVVLGYTDRIGSDAYNQGLSERRAQSVVDYLISKGIPADKISARGMGESNPVTGNTCDNVKQRAALIDCLAPDRRVEIEVKGIKDVVTQPQA
With B12, in assay [3], the binding result is reported as “binds”.

B13: YgaM (protein, UniProt P0ADQ7 1-109)
chain: MFNRPNRNDVDDGVQDIQNDVNQLADSLESVLKSWGSDAKGEAEAARSKAQALLKETRARMHGRTRVQQAARDAVGCADSFVRERPWCSVGTAAAVGIFIGALLSMRKS
Regarding B13, the binding entry in assay [5] was “binds”.

B14: yafD (protein, UniProt P0A8U2 1-266)
chain: MRKNTYAMRYVAGQPAERILPPGSFASIGQALPPGEPLSTEERIRILVWNIYKQQRAEWLSVLKNYGKDAHLVLLQEAQTTPELVQFATANYLAADQVPAFVLPQHPSGVMTLSAAHPVYCCPLREREPILRLAKSALVTVYPLPDTRLLMVVNIHAVNFSLGVDVYSKQLLPIGDQIAHHSGPVIMAGDFNAWSRRRMNALYRFAREMSLRQVRFTDDQRRRAFGRPLDFVFYRGLNVSEASVLVTRASDHNPLLVEFSPGKPDK
On to B14, for which the binding entry in assay [2] and in assay [1] was “binds” in each case.

Source of the values: paper PMC8196013.
